From US20150166671A1 (CHILDREN S MEDICAL CENTER, published 2015)
No constants are given. Whether binding was seen depends on the method and setting. Binding seen in cells or lysates may run through a third protein. Some results given as binding are weak or reduced against the parent protein; the word gives no strength. Sequences can lack the tags named with a protein.

The chains behind the UniProt entries cited, without tags or fusion partners. Residues count along the entry.
UniProt P27467, residues 19-352: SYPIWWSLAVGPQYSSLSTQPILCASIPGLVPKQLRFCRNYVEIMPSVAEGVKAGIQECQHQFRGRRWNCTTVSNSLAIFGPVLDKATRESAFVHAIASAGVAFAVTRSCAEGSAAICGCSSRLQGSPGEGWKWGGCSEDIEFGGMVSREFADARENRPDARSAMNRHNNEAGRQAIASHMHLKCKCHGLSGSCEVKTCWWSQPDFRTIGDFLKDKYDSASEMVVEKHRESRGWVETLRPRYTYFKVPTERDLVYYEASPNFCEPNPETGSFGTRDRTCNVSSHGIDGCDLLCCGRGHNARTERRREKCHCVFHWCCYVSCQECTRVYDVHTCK

Key:
Test in all cases: co-immunoprecipitation from CM with an anti-FLAG antibody, Western blotting
Xwnt11 (Xenopus) = target: T1, Xwnt11 (Xenopus) (UniProt P49893)
T1 sequence (looked up): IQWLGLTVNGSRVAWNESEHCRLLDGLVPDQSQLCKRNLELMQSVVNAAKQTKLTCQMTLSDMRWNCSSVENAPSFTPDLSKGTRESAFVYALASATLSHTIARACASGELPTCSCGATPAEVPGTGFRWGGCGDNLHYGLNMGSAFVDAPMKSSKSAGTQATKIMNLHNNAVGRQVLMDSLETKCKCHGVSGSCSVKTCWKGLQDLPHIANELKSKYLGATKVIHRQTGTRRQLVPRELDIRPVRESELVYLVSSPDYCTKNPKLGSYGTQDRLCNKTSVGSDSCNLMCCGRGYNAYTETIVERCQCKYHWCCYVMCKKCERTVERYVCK

Xwnt8-Myc (Xenopus) = target: T2, Xwnt8-Myc (Xenopus) (UniProt P28026)
T2 sequence: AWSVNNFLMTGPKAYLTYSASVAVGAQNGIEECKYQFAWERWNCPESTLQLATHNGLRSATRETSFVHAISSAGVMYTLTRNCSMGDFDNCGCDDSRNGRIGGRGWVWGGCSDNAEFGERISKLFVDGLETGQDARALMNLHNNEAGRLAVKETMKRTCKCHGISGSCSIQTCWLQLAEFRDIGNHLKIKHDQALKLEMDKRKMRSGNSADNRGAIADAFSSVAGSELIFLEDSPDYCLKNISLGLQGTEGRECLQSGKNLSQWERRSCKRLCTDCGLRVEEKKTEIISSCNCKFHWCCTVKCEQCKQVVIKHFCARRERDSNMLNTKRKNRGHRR

mouse Wnt3a (mouse) = mouse Wnt3a (mouse) (UniProt P27467)

Measured: binding

B1: TIKI2N-FLAG-6xHIS (enzyme, not shown: small tags and cut ends)
chain: RPQPPDGGQCRPPGSQRDLNSFLWTIRRDPPAYLFGTIHVPYTRVWDFIPDNSKAAFQASTRVYFELDLTDPYTISALASCQLLPHGENLQDVLPHELYWRLKRHLDYVKLMMPSWMTPAQRGKGLYADYLFNAIAGNWERKRPVWVMLMVNSLTERDVRFRGVPVLDLYLAQQAEKMKKTTGAVEQVEEQCHPLNNGLNFSQVLFALNQTLLQQESVRAGSLQASYTTEDLIKHYNCGDLSAVIFNHDTSQLPNFINTTLPPHEQVTAQEIDSYFRQELIYKRNERMGKRVMALLRENEDKICFFAFGAGHFLGNNTVIDILRQAGLEVDHTPAGQAIHSPAPQSPAPSPEGTSTSPAPVTPAAAVPEAPSVTPTAPPEDEDPALSPHLLLPDSLSQLEEFGRQRKWHKRQSTHQRPRQFNDLWVRIEDSTTASPPPLPLQPTHSSGTAKPPFQLSDQLQQQDPPG
binds: Xwnt11 (Xenopus) | Xwnt8-Myc (Xenopus) | mouse Wnt3a (mouse)
